The supplement of paper PMC11732987, “Enantioselective OTUD7B fragment discovery through chemoproteomics screening and high-throughput optimisation” (Communications Chemistry, 2025)
The other results are listed elsewhere or left out. The data scatter; read single values as rough.

By UniProt entry, the sequences of proteins in these tests, tags left out. Where a name states a change or a piece, a line headed by the entry shows the natural chain unless it says otherwise. Residues count along the entry.
UniProt P49454: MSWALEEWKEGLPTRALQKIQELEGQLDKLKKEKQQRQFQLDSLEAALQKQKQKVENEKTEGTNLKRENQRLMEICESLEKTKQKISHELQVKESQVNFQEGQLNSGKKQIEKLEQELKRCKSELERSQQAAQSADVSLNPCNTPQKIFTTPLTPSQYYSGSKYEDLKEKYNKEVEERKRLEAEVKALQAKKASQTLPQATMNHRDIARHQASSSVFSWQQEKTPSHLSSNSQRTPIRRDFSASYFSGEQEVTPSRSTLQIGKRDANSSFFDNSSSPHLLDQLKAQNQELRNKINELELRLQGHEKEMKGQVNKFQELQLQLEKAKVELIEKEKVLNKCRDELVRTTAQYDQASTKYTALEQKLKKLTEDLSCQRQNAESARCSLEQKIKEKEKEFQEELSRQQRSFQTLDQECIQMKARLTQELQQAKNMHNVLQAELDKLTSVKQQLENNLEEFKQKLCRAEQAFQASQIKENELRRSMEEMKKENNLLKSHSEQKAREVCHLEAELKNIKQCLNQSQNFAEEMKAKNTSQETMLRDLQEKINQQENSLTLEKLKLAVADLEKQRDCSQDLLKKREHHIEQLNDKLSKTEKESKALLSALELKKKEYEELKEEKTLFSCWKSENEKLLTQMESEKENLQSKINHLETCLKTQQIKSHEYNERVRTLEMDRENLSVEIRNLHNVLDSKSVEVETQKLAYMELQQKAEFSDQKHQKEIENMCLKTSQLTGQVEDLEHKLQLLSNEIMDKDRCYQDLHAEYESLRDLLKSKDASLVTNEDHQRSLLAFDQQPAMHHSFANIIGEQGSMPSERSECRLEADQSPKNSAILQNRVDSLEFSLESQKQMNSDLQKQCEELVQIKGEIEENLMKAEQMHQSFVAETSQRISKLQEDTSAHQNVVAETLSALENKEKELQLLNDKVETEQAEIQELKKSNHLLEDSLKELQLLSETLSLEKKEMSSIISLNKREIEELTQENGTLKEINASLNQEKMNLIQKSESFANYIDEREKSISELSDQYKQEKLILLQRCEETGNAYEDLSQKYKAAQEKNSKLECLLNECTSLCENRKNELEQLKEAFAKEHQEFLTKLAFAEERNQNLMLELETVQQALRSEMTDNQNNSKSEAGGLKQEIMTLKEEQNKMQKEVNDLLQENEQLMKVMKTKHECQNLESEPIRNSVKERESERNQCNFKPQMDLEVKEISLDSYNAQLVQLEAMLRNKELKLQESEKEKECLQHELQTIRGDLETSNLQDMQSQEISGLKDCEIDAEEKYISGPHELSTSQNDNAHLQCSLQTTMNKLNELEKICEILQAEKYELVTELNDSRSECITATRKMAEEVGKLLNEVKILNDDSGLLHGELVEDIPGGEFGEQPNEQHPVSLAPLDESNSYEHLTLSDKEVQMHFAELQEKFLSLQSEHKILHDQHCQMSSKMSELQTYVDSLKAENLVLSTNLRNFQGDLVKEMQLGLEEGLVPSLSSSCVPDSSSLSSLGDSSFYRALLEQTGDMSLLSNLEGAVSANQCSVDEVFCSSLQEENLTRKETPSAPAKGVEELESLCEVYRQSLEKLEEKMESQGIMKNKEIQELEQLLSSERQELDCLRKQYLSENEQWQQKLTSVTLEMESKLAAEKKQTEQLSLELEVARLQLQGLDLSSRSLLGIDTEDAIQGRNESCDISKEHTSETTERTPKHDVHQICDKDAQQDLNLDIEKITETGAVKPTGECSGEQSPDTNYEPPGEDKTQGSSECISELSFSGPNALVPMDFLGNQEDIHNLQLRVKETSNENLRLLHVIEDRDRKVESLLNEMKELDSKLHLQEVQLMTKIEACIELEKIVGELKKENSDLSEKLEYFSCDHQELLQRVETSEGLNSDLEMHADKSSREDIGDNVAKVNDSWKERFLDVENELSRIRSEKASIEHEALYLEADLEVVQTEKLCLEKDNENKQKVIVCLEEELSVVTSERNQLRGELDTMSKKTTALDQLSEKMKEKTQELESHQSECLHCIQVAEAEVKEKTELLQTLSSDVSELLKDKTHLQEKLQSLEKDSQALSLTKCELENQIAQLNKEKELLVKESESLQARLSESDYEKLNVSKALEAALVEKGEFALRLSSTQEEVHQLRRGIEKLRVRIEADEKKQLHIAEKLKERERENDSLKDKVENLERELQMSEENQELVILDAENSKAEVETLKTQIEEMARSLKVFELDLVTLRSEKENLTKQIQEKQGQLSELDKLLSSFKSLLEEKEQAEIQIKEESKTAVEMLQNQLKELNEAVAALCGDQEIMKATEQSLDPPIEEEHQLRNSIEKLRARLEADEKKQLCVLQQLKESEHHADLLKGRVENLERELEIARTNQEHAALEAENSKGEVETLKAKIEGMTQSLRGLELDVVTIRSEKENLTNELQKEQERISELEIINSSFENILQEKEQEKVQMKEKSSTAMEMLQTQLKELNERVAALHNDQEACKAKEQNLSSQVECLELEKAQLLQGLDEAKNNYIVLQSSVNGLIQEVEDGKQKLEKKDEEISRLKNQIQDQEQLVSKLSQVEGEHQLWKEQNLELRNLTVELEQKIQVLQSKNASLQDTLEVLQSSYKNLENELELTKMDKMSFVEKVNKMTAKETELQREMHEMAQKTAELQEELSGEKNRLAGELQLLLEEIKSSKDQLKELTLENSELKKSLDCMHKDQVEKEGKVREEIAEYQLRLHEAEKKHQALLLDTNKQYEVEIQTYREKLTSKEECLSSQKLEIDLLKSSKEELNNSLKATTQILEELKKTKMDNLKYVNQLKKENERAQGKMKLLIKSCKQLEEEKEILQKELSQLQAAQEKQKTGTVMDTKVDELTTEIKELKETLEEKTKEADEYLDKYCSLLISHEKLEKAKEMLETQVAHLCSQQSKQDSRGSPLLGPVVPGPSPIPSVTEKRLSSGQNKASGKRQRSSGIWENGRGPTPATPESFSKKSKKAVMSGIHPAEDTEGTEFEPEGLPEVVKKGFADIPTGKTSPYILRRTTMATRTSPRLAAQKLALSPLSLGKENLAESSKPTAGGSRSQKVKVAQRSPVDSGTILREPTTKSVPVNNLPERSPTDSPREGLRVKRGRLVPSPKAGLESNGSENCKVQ
UniProt Q8TCZ2: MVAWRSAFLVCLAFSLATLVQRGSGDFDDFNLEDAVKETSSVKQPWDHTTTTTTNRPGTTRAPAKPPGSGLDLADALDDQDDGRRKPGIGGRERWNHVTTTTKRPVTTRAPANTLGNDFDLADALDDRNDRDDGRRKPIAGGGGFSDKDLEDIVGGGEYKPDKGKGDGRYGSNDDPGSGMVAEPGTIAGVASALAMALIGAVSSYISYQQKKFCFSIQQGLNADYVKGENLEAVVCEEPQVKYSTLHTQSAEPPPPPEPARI
UniProt P11802: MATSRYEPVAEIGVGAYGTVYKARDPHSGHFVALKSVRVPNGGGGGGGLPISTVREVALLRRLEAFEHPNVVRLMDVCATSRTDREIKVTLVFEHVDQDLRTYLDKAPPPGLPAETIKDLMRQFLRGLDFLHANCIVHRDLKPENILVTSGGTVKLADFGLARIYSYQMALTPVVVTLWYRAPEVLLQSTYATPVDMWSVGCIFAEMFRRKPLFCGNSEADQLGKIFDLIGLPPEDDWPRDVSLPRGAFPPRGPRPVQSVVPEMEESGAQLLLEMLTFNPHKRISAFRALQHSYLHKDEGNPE
UniProt Q8N2Z9: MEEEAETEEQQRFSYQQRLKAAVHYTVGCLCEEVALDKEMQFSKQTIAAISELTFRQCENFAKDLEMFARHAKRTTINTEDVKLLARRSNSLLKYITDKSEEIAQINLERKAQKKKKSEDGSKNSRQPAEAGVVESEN
UniProt Q12873, 1537-1563: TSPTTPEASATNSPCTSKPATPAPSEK
UniProt Q02224: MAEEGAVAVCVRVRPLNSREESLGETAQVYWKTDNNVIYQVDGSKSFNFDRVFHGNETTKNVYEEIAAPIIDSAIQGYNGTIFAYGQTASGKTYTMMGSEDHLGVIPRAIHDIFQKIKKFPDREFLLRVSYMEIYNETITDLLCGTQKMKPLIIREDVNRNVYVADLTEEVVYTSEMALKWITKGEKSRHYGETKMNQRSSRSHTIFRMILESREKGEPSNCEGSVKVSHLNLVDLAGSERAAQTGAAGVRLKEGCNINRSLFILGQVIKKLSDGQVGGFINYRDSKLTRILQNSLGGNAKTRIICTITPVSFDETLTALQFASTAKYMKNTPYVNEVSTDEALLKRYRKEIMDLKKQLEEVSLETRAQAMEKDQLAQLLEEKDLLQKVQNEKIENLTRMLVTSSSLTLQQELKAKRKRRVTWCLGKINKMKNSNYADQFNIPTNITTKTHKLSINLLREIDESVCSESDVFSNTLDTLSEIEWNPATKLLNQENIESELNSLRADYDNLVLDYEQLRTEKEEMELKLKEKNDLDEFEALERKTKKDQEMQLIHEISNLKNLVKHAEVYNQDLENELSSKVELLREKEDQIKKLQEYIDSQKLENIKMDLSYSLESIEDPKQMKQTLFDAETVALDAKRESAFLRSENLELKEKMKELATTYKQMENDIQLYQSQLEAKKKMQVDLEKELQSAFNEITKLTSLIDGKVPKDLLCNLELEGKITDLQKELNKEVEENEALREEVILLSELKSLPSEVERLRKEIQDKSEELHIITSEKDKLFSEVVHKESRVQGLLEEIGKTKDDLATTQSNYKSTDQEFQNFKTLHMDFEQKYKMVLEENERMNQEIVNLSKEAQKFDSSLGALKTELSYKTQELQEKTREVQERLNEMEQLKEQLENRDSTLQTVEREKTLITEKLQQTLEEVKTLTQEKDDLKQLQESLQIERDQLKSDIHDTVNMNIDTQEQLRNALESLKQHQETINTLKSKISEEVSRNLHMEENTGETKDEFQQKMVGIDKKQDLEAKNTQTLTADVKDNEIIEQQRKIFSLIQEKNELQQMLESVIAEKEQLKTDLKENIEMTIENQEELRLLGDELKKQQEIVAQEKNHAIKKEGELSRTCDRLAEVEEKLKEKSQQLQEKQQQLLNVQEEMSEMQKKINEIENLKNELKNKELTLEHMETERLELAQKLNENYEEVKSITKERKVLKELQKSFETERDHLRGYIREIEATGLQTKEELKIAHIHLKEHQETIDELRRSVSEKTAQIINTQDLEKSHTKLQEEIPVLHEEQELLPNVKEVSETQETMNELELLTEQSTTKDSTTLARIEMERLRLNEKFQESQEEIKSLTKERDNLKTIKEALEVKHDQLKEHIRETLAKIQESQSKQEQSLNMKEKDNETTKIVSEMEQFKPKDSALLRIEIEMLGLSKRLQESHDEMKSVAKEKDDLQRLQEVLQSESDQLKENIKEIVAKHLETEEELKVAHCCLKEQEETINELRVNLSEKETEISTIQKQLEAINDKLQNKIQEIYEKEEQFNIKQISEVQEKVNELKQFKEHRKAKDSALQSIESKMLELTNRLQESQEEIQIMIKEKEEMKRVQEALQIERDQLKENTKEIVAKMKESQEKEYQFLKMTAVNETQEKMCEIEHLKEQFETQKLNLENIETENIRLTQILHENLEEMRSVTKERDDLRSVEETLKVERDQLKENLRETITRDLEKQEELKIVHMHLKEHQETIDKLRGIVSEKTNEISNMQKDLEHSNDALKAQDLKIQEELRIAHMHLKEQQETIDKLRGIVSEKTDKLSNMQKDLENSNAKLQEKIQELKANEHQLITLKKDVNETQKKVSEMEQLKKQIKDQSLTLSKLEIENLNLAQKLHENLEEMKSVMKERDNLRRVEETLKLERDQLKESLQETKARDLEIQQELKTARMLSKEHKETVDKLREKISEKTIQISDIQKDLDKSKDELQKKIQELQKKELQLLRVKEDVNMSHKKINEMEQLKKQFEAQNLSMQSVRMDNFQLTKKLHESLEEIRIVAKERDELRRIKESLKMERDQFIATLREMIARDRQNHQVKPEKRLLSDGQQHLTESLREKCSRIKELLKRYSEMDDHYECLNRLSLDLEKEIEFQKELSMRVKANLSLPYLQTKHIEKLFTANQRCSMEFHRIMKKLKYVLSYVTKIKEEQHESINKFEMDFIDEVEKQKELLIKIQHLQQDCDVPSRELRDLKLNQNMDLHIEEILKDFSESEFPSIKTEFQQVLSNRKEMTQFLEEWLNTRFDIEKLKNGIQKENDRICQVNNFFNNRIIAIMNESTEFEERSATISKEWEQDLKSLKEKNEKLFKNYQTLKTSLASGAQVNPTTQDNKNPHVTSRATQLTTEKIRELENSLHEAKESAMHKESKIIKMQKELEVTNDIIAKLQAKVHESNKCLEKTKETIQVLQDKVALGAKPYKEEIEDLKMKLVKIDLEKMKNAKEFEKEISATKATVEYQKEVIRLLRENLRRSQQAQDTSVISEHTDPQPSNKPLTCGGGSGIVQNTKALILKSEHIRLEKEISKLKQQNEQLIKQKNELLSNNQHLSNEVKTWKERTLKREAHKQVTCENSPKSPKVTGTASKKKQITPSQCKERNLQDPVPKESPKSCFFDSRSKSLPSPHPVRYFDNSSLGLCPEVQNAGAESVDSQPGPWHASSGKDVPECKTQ

Compound: ClCC(=O)N[C@@H]1CCCc2ccccc12
Experiment: log2 mean competition ratio of IA-DTB cysteine labelling (DMSO/compound) (log2 ratio); higher = stronger cysteine engagement by compound
Conditions: 50 µM; treatment time: 4 h; cell line lysate: HEK293T
Experimental: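 IA-DTB competitive cysteine chemoproteomics in HEK293T RIPA lysate. Lysates were treated with compound 29 or 30 at 50 or 200 µM for 4 h, then IA-DTB (500 µM, 1 h), trypsin-digested, NeutrAvidin-enriched and analysed by diaPASEF. Competition ratio = intensity DMSO / intensity compound (n=4 treated, n=64 DMSO); binding: mean log2 CR ≥ 1 and p ≤ 0.05 plus QC filters. Target is the cysteine site.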

Target	log2 mean competition ratio
CEP104 C525 (UniProt O60308)	-0.152
CENPF C1328 (UniProt P49454)	0.0188
CHAMP1 C592 (UniProt Q96JM3)	0.131
CENPB C259 (UniProt P07199)	0.131
CCND2 C5 (UniProt P30279)	-0.153
CENPJ C294 (UniProt Q9HC77)	-0.206
CCDC88C C1467 (UniProt Q9P219)	0.0601
CDC42 C157	-0.177
CEP135 C316 (UniProt Q66GS9)	0.303
CD99L2 C236 (UniProt Q8TCZ2)	-0.271
CDK4 C215 (UniProt P11802)	-0.0394
CHAF1A C761 (UniProt Q13111)	-0.228
CENPS C58 (UniProt Q8N2Z9)	-0.187
CDYL C515 (UniProt Q9Y232)	0.175
CDK5 C117 (UniProt Q00535)	1.02
CCT3 C398	0.201
CEP78 C653 (UniProt Q5JTW2)	-0.113
CCT4 C337 (UniProt P50991)	-0.35
CENPF C1671 (UniProt P49454)	-0.0835

Target	log2 mean competition ratio
CCDC8 C256 (UniProt Q9H0W5)	-0.0909
CHD3 C1551 (UniProt Q12873)	0.41
CENPE C2626 (UniProt Q02224)	-0.0462
CCT7 C370 (UniProt Q99832)	0.104
CDKN2AIP C516 (UniProt Q9NXV6)	-0.0149
CCDC47 C283 (UniProt Q96A33)	-0.0552
CDAN1 C1213	-0.219
CENPK C38 (UniProt Q9BS16)	-0.0338
CENPE C2162 (UniProt Q02224)	0.0944
CEP192 C939 (UniProt Q8TEP8)	-0.0499
CDC37 C336	-0.11
CCAR1 C465 (UniProt Q8IX12)	-0.271
CEP162 C578 (UniProt Q5TB80)	0.203
CEP152 C653 (UniProt O94986)	-0.11
CHAMP1 C119 (UniProt Q96JM3)	-0.00765
CENPE C2602 (UniProt Q02224)	-0.122
CDC16 C194 (UniProt Q13042)	0.00653
CENPF C2738 (UniProt P49454)	-0.0931
CDK5RAP1 C538 (UniProt Q96SZ6)	-0.213

Part of the list above, set out differently.
CD99L2 C236 (UniProt Q8TCZ2)
  log2 mean competition ratio = -0.271
CDK4 C215 (UniProt P11802)
  log2 mean competition ratio = -0.0394
CHAF1A C761 (UniProt Q13111)
  log2 mean competition ratio = -0.228
